The text below walks through data of PMC5342071, “A first generation inhibitor of human Greatwall kinase, enabled by structural and functional characterisation of a minimal kinase domain construct” (Oncotarget, 2016).

Amino acid sequences for entries named in this document (tags omitted).
UniProt P0A6F5: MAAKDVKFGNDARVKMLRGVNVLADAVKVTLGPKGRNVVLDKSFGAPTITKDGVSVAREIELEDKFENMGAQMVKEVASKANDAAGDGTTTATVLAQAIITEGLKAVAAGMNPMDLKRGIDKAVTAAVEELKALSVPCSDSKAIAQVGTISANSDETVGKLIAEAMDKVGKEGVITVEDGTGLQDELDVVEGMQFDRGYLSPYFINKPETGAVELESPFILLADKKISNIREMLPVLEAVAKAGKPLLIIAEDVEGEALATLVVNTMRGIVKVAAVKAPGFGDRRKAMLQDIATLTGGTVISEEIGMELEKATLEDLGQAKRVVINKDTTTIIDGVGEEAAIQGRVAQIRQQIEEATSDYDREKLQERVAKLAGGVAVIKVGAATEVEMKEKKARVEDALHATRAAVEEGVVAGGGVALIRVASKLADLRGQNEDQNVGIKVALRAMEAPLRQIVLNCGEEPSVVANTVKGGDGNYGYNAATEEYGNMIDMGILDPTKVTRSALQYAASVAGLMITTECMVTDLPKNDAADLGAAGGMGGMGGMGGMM

These are yes or no findings as the source states them, for the method shown. Some binding calls cover weakened binding; strength is not graded here.

For assay [1], the target named is GST-hGWL-KinDom fusion (minimal kinase domain construct of human Greatwall kinase, NCMR replaced by 'RTFC' of PKCα) (human) (UniProt Q96GX5). As to the kind of experiment: co-purification on glutathione resin; GST-hGWL-KinDom expressed in E. coli and purified by standard chromatography (Amintra Glutathione Resin); host GroEL came with the fusion.
For assay [2] the target is unchanged. As to the kind of experiment: co-purification on glutathione resin; as a1, but the co-purified GST-hGWL-KinDom/GroEL was incubated with ATP to release GroEL.

On to “E.coli chaperone GroEL (from UniProt P0A6F5 1-548)”, for which the figures for the binding result in assay [1] and in assay [2] were “binds” and “no binding (condition: incubation with ATP)”, respectively.
